Data published in US11512085B2, “Heteroaryl compound having drug activity” (SHANGHAI DUDE MEDICAL TECHNOLOGY CO., LTD, priority 2017, dated 2022).
For at least one compound, name, drawing or mass did not settle the structure.

Key:
B cells = assay: B cell activation (anti-human IgM, CD69 staining); assay type: cell-based; settings: concentration of 0.1 uM
Procedure: (§1) Biological Embodiment 3: Influences of In-Vitro Test Compounds on PBMC/B/T Cell Activation
(§2) 4.3 Isolation of B Cells and T Cells
(§3) Cell Isolation Programs Shall Refer to […] Kits
4.4.1 Activation of B Cells
(§4) The co-culture system is as follows:
(§5) Antibody Staining and Data Analysis
(§6) Antibody staining was performed within 24 hours […] according to a standard method.
4.5.1 Activation of PBMC and B Cells
(§7) LIVE/DEAD Fixable Violet Dead Cell Stain Kit

T cells = assay: T cell activation (CD3/CD28 dynabeads, CD69 staining); assay type: cell-based, Human; settings: concentration of 10 uM
Procedure: as §1, §2, §3
4.4.3 Activation of T Cells
as §4, §5, §6
4.5.2 Activation of T Cells
FITC Mouse Anti-Human CD4
PerCP-Cy™5.5 Mouse Anti-Human CD8
as §7

C=CC(=O)N1CCC[C@@H](n2nc(-c3ccc(Oc4ccccc4)cc3)c3c(N)ncnc32)C1 [Ibrutinib, reference compound]
B cell activity inhibition effect (B cells): obvious B cell activity inhibition effects
T cell activity inhibition effect (T cells): T cell activity inhibition effect
